The record followed here is paper PMC6396667.

Protein sequences, listed by entry. Tags and fused reporters are not part of them.
UniProt Q9UM07: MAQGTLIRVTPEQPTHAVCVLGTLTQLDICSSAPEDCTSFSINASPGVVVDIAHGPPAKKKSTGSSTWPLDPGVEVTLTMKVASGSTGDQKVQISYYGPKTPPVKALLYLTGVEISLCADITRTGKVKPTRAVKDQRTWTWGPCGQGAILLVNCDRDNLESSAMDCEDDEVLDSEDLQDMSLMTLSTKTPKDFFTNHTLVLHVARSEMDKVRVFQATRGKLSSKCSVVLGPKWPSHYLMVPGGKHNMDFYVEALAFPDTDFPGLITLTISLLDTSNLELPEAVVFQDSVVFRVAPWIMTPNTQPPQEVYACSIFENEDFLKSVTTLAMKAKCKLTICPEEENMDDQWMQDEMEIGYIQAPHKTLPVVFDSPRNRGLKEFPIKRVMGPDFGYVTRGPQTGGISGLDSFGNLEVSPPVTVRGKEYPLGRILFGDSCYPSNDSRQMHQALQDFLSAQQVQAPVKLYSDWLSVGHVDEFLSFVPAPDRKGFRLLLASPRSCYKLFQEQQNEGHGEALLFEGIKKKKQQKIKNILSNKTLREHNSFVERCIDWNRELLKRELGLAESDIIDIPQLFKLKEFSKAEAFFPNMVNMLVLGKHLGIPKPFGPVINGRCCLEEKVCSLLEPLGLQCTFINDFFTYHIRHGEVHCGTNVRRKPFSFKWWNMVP

The experiment addresses PAD4, endogenous in DMSO-differentiated HL60 cells (human (endogenous in HL60)) (UniProt Q9UM07). As to the kind of experiment: co-IP; lysate of DMSO-differentiated HL60 cells (Tris-Cl 25 mM pH 7.4, NaCl 50 mM, CaCl2 2 mM, 1% NP40) precipitated with anti-PAD4 (rabbit) or generic rabbit IgG, protein A/G beads; blot with anti-PAD4 and anti-thioredoxin.

These are yes or no findings as the source states them, for the method shown. Binding seen in cells or lysates may run through a third protein. Some results given as binding are weak or reduced against the parent protein; the word gives no strength.

B1: thioredoxin (hTRX), endogenous in DMSO-differentiated HL60 cells (enzyme, UniProt P10599 1-105)
chain: MVKQIESKTAFQEALDAAGDKLVVVDFSATWCGPCKMIKPFFHSLSEKYSNVIFLEVDVDDCQDVASECEVKCMPTFQFFKKGQKVGEFSGANKEKLEATINELV
B1: the binding result is “binds”.
